Results are given in words; binding and its absence hold for the method and conditions named. Binding seen in cells or lysates may run through a third protein. Binding can be weak; no strength is given.
Columns and labels:
[1] = target: T1, Canonical eukaryotic translation elongation factor eEF1Bδ1 (mouse (endogenous in Neuro-2a)) (UniProt P57776); assay: co-IP; Neuro-2a cells lysed in NP lysis buffer (50 mM Tris-HCl pH 7.5, 120 mM NaCl, 0.5% NP-40, 1 mM EDTA); extract incubated with anti-EEF1D (eEF1Bδ) antibody overnight at 4°C, Protein A or G Sepharose; Western blot of the immunoprecipitate
T1 sequence: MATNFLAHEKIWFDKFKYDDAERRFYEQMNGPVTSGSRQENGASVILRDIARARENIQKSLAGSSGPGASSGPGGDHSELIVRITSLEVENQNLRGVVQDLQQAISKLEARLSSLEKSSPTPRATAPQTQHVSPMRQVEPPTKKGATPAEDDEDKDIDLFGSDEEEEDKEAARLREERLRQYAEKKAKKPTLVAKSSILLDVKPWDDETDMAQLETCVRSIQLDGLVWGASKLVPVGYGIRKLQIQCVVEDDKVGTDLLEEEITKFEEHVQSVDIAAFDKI

[2] = target: T2, Eukaryotic translation elongation factor 1BδL (eEF1BδL) (mouse (endogenous in Neuro-2a)) (UniProt P57776); assay: as above
T2 sequence: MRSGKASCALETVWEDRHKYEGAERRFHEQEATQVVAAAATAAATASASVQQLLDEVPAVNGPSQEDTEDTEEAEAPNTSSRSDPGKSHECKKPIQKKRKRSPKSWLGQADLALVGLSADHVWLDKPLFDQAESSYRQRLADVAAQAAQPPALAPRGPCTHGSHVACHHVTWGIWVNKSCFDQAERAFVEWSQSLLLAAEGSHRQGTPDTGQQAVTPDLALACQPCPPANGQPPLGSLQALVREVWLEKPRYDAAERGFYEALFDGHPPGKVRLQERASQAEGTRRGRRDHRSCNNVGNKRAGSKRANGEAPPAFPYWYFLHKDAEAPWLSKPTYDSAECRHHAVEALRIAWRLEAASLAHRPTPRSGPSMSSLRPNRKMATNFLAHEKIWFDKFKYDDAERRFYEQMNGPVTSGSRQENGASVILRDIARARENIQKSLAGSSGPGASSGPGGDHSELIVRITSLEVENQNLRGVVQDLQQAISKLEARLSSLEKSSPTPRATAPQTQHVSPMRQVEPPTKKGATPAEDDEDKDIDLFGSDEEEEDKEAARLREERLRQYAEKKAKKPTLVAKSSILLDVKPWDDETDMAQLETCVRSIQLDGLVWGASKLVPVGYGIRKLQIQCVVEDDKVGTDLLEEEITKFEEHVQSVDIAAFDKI

Substance | binding [1] | binding [2]
Protein phosphatase 1 (PP1) (mouse (endogenous in Neuro-2a)) (enzyme) | binds | binds
Protein phosphatase 2A (PP2A) (mouse (endogenous in Neuro-2a)) (enzyme) | no binding | no binding
